# Test results as given in US20080193450A1 (ISTITUTO SUPERIORE DI SANITA, published 2008).
# Amino acid sequences for entries named in this document (tags omitted). Residues count along the entry.
# UniProt P0CS83, residues 57-398: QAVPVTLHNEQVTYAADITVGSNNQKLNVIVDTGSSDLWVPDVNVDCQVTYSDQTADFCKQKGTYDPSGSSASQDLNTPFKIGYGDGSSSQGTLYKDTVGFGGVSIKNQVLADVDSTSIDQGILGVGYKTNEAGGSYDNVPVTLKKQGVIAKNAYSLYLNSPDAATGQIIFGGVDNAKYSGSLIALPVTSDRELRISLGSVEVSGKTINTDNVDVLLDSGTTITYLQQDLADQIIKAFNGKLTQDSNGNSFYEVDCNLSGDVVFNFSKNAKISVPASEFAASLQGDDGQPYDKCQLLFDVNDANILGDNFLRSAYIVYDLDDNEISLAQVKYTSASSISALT
# These are yes or no findings as the source states them, for the method shown. Some binding calls cover weakened binding; strength is not graded here.
# B1: ADR4-11 (other)
# chain: EVQLLESGGGLVQPGGSLRLSCAASGVIFTDQTMGWVRQAPGKGLEWVSAIKTRDGSTYYADSVKGRFTISRDNSKNTLYLQMNSLRAEDTAVYYCARFLRPNASRGSAREAQIHSWGQGTLVTVSS
# B2: ADR4-13 (other)
# chain: EVQLLESGGGLVQPGGSLRLSCAASGFSISYKNMAWVRQAPGKGLEWVSAIKAANGSTYYADSVKGRFTISRDNSKNTLYLQMNSLRAEDTAVYYCATGSQKKRTYTFDFWGQGTLVTVSS
# B3: ADR4-6 (other)
# chain: EVQLLESGGGLVQPGGSLRLSCAASGFRVSNYDLTWVRQAPGKGLEWVSTISATNGSTYYADSVKGRFTISRDNSKNTLYLQMNSLRAEDTAVYYCAAVTWWLLRHNDNLGFWGQGTLVTVSS
# Molecular target: recombinant 6x his-tagged SAP2 (secretory aspartic protease 2 of Candida albicans), refolded (Candida albicans) (UniProt P0CS83)
# Assay: ELISA screen on coated recombinant SAP2
row,Binder,binding
1,B1,binds
2,B2,binds
3,B3,binds
